These results are taken from PMC4741959.

By UniProt entry, the sequences of proteins in these tests, tags left out.
UniProt P63279: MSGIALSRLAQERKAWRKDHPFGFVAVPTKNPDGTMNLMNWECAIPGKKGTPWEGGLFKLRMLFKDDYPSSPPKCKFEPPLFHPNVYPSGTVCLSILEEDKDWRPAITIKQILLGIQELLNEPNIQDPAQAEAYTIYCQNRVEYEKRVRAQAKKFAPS

The target in this test is B-cell lymphoma 2 (Bcl-2) (human (endogenous in HepG2 and RKO)) (UniProt P10415). Kind of test: co-IP; total protein extracts of HepG2 and RKO cells transfected with scrambled siRNA or siUbc9 (20 nM, 48 hours); immunoprecipitation with specific antibodies, Western blotting; silencing of Ubc9 lowered the interaction. (A western blot detects proteins with antibodies after separation by electrophoresis.)

These are yes or no findings as the source states them, for the method shown. In cells and extracts the contact can be indirect. Some entries that bind do so weakly or less than the wild type.

On to “Ubiquitin-conjugating enzyme 9 (Ubc9) (from UniProt P63279 1-158)”, for which the binding result is “binds”.
